Reference: the supplement of paper PMC12823440, “Inhibitors supercharge kinase turnover through native proteolytic circuits” (Nature, 2025)
Structures can show the parent of a compound that is named as a salt. Some of the results follow. Hit calls seldom repeat between salt and free forms of one compound.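 Kinases were expressed as nanoluciferase fusions in K562 cells and luminescence was read every 4 h between 2 and 18 h as percent of control, DMSO set to 100% and a positive control to 0%. A time point counts as decreased when the signal drops significantly (2 sigma). The hit call is the authors' own, does not follow from the count of time points alone, and its rule is not shown.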

Target: ZAK (UniProt Q9NYL2)
Experiment: number of time points (of 5) at which kinase-Nluc abundance scored as decreased, DMSO-normalised (count); higher = more persistent destabilization
Conditions: K562; 2-18 h

| SMILES | number of time points |
| --- | --- |
| CC(C)n1ncnc1-c1cn2c(n1)-c1ccc(O[C@@H](C)C(N)=O)cc1OCC2 (10 µM) | 0 |
| O=C(c1cccc(Cl)c1F)N1CCN(Cc2cccc(Nc3nccs3)n2)CC1 (2.5 µM) | 0 |
| COc1cc(F)ccc1-c1ncnc(Nc2cccc(C[S@](C)(=N)=O)c2)n1 [Atuveciclib] (2.5 µM) | 0 |
| Cc1cnc(NC(=O)c2cc(Oc3cnc(C(=O)N(C)C)nc3)c3cc(C)oc3c2)cn1 (10 µM) | 0 |
| CC1=C(C(=O)Nc2cc3cn[nH]c3cc2F)C(c2ccc(C(F)(F)F)cc2)CC(=O)N1 (stereo unspecified) (10 µM) | 0 |
| NCC1CCC(CNc2nc(NCc3ccccc3OC(F)(F)F)ncc2[N+](=O)[O-])CC1 (stereo unspecified) [PKC-theta inhibitor] (10 µM) | 0 |
| O=C1Nc2ccc(I)cc2/C1=C/c1cc(Br)c(O)c(Br)c1 (10 µM) | 0 |
| COc1cc(-c2oc3cc(O)cc(O)c3c(=O)c2O)ccc1O [Isorhamnetin] (10 µM) | 0 |
| O=C1OC(/C=C/c2ccccc2)=NC/1=C\c1cccnc1 (10 µM) | 0 |
| Cn1ncc(NC(=O)c2nc(-c3c(F)cccc3F)sc2N)c1N1CC[C@@H](N)[C@H](F)CC1 (10 µM) | 0 |
| CNC(=O)CNc1cnc2ccc(-c3ccc(OC)c(OC)c3)cc2n1 (10 µM) | 0 |
| CO[C@H]1C[C@@H]2CC[C@@H](C)[C@@](O)(O2)C(=O)C(=O)N2CCCC[C@H]2C(=O)O[C@H]([C@H](C)C[C@@H]2CC[C@@H](OCCO)[C@H](OC)C2)CC(=O)[C@H](C)/C=C(\C)[C@@H](O)[C@@H](OC)C(=O)[C@H](C)C[C@H](C)/C=C/C=C/C=C/1C [Everolimus] (10 µM) | 0 |
| O=C(Nc1cccnc1)c1cc(-c2ccnc(F)c2)ccc1OCc1ccccc1 (10 µM) | 0 |
| COc1c(O)cc2oc(-c3ccc(O)cc3)cc(=O)c2c1O [Hispidulin] (10 µM) | 0 |
| O=C1CC[C@H](NC(=O)Cc2ccccc2)C(=O)N1 [Antineoplaston A10] (10 µM) | 0 |
| CC(C)Oc1ccc(F)c(-c2cnc(N)c(C(=O)Nc3cnccc3N3CCC[C@@H](C(=O)O)C3)n2)c1 (2 µM) | 0 |

2 records drawn at random from those above:

| SMILES | number of time points |
| --- | --- |
| Cn1ncc(NC(=O)c2nc(-c3c(F)cccc3F)sc2N)c1N1CC[C@@H](N)[C@H](F)CC1 (10 µM) | 0 |
| O=C1Nc2ccc(I)cc2/C1=C/c1cc(Br)c(O)c(Br)c1 (10 µM) | 0 |

Remaining list, next part.

| SMILES | number of time points |
| --- | --- |
| Nc1nc2c(nc(Br)n2[C@@H]2O[C@@H]3COP(=O)(O)O[C@H]3[C@H]2O)c(=O)[nH]1 [8-Bromo-cGMP (sodium)] (10 µM) | 0 |
| Cc1cc(-n2c(=O)ccc3c[nH]c4nccc-4c32)ccc1F (10 µM) | 0 |
| CO[C@H]1CC[C@H](N2C(=O)CNc3ncc(-c4ccc(C(C)(C)O)nc4)nc32)CC1 (2.5 µM) | 0 |
| COc1cc2c(cc1OC)/C(=C/c1ccc(O)cc1)C(=O)N2 (10 µM) | 0 |
| NCCOc1ccc(Cl)cc1C(=O)Nc1ccc([N+](=O)[O-])cc1Cl [HJC0152 hydrochloride] (2 µM) | 0 |
| CCN(CC)CCOc1ccc(Nc2nc(-c3ccccc3NC(=O)CCN3CCN(C)CC3)nc3ccccc23)cc1 (2.5 µM) | 0 |
| C=CC(=O)N1CCN(C(=O)CNc2cc(I)c(Cl)cc2O)CC1 [K-Ras(G12C) inhibitor 12] (10 µM) | 0 |
| N[C@@H]1CCCN(c2c(/C=C3\SC(=O)NC3=O)cccc2-c2ccccc2)C1 (10 µM) | 0 |
| O=C(Nc1cc(Cl)cc2c1[nH]c1cnccc12)c1cccnc1 (10 µM) | 0 |
| C=C1C(=O)[C@@]23[C@H](O)C[C@@H]4C(C)(C)C(=O)CC[C@@]4(C)[C@@H]2CC[C@@H]1[C@H]3O [Glaucocalyxin A] (2.5 µM) | 0 |
| C[C@@H]1O[C@@H](Oc2cc(O)c3c(=O)c(O[C@@H]4O[C@@H](C)[C@H](O)[C@@H](O)[C@H]4O)c(-c4ccc(O)cc4)oc3c2)[C@H](O)[C@H](O)[C@H]1O [Kaempferitrin] (10 µM) | 0 |
| Cc1c(C(=O)Nc2ccc(Oc3ccnc4[nH]cc(-c5ccccc5)c34)c(F)c2)c(=O)n(-c2ccc(F)cc2)n1C (10 µM) | 0 |
| c1nc2c(NC3CCCCC3)nc(Nc3ccc(N4CCOCC4)cc3)nc2[nH]1 [Reversine] (10 µM) | 0 |
| CN1CCN(c2ccc(Nc3ncc4cc(C#N)c(=O)n(C5CCCC5)c4n3)cc2)CC1 (10 µM) | 0 |
| NC[C@@](O)(c1ccc(Cl)cc1)c1ccc(-c2cn[nH]c2)cc1 (10 µM) | 0 |
